Binding data for two molecules are collected here from PMC10774338.

Results are given in words; binding and its absence hold for the method and conditions named. Binding seen in cells or lysates may run through a third protein. Some entries that bind do so weakly or less than the wild type. Tags and fused reporters may be left off the sequences shown.

The target of the experiment is T1, HA-tagged NH2-terminal fragment of WDR44 containing the RBD (1-408 AA) (human) (UniProt Q5JSH3).
T1 sequence: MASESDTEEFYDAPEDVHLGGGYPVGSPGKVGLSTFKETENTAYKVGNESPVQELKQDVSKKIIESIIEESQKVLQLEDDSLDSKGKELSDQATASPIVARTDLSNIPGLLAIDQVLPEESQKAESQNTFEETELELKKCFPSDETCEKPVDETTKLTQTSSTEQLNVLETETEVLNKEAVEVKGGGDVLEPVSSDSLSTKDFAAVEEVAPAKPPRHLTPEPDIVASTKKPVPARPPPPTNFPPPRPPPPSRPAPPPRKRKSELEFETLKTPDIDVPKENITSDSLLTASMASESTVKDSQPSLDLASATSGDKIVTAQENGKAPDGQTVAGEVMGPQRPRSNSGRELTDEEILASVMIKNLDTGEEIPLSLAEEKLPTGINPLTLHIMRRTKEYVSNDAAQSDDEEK
Put plainly: co-IP; HA-NH2-terminal fragment (1-408) and GST-COOH-terminal fragment (477-913) wild-type or variants coexpressed in 293T for 48 h; HA immunoprecipitation (150 mM NaCl, 20 mM Tris HCl pH 8.0, 10% glycerol, 1% Triton X-100; Protein G Sepharose), blots for GST and HA.

B1: GST-tagged COOH-terminal WDR domain of WDR44 (477-913 AA), wild-type (domain or fragment, UniProt Q5JSH3-1 477-913)
chain: MPYTRPVKFKAAHGFKGPYDFDQIKVVQDLSGEHMGAVWTMKFSHCGRLLASAGQDNVVRIWALKNAFDYFNNMRMKYNTEGRVSPSPSQESLSSSKSDTDTGVCSGTDEDPDDKNAPFRQRPFCKYKGHTADLLDLSWSKNYFLLSSSMDKTVRLWHISRRECLCCFQHIDFVTAIAFHPRDDRYFLSGSLDGKLRLWNIPDKKVALWNEVDGQTKLITAANFCQNGKYAVIGTYDGRCIFYDTEHLKYHTQIHVRSTRGRNKVGRKITGIEPLPGENKILVTSNDSRIRLYDLRDLSLSMKYKGYVNSSSQIKASFSHDFTYLVSGSEDKYVYIWSTYHDLSKFTSVRRDRNDFWEGIKAHNAVVTSAIFAPNPSLMLSLDVQSEKSEGNEKSEDAEVLDATPSGIMKTDNTEVLLSADFTGAIKVFVNKRKNVS
Turning to B1, the binding result was “binds”.

B2: GST-tagged COOH-terminal WDR domain of WDR44 (477-913 AA) N840S (domain or fragment, UniProt Q5JSH3-1 477-913)
chain: MPYTRPVKFKAAHGFKGPYDFDQIKVVQDLSGEHMGAVWTMKFSHCGRLLASAGQDNVVRIWALKNAFDYFNNMRMKYNTEGRVSPSPSQESLSSSKSDTDTGVCSGTDEDPDDKNAPFRQRPFCKYKGHTADLLDLSWSKNYFLLSSSMDKTVRLWHISRRECLCCFQHIDFVTAIAFHPRDDRYFLSGSLDGKLRLWNIPDKKVALWNEVDGQTKLITAANFCQNGKYAVIGTYDGRCIFYDTEHLKYHTQIHVRSTRGRNKVGRKITGIEPLPGENKILVTSNDSRIRLYDLRDLSLSMKYKGYVNSSSQIKASFSHDFTYLVSGSEDKYVYIWSTYHDLSKFTSVRRDRNDFWEGIKAHSAVVTSAIFAPNPSLMLSLDVQSEKSEGNEKSEDAEVLDATPSGIMKTDNTEVLLSADFTGAIKVFVNKRKNVS
Regarding B2, the binding entry is given as “binds”.
